From patent US20240199557A1, “METHODS OF MAKING 1-BENZYL-4-PHENYL-1H-1,2,3-TRIAZOLE (BPT) AND BPT COATED STRUCTURES” (BOARD OF REGENTS, THE UNIVERSITY OF TEXAS SYSTEM, priority 2022, published 2024) come the findings set out here.

Data set [1] in a line: Open circuit potential (OCP) of steel rebar in synthetic pore solution. To be noted: 2M NaCl. From the text: The steel cylinder working electrode (WE) were cross-sectioned and encased in epoxy. The surface was polished using 120 grit to 600 grit SiC paper, resulting in an exposed area of 0.499±0.01 cm^2. A Pt mesh was used as the counter electrode (CE). In terms of the reference electrodes (RE), a Saturated Calomel Electrode (SCE) was used for solutions with chloride and a Mercury Mercurous Sulfate Electrode (MSE) for solutions without chloride, satisfying the electrochemical cell requirements of ASTM standard G5 [38]. Though the experiments without chlorides were measured with MSE, the results were converted to SCE.
The WE, RE, and CE were placed in a test cell containing a synthetic pore solution (SPS). This SPS mimics the concrete pore environment and followed a formula consisting of 8.33 g/L NaOH+23.3 g/L KOH+2.0 g/L Ca(OH)2 (pH:13.6). These solutions were prepared using deionized water from a Milli-Q Water Purification System (resistivity: 18.2-18.7 MΩ·cm) and analytically pure grade reagents.
The testing procedure involved an initial pH measurement of the solution followed by purging the cell with CO2-free air (300 cc/min or more) for 5 minutes, prior to introducing the WE and throughout the experiment to reduce the effects of carbonation. More details can be found elsewhere. 2 M NaCl was chosen for the experiments since previously tested concentrations were not able to break the passive film generated in this highly alkaline environment. After chloride addition, the electrolyte was stirred for 4 h, while continuing to purge with CO2-free air. Then stirring stopped and purging was continued for 20 h to allow for passivation of the substrate. […] This procedure is similar to ASTM G180 [41]. The difference is related to the use of SPS instead of a cement slurry. Using a Gamry Reference 600+Potentiostat, different electrochemical tests were performed including open circuit potential (OCP), linear polarization resistance (LPR) and Anodic Cyclic Polarization (CYP).
Applying the criteria from ASTM C876 [70], it can be seen that most conditions are at low risk of corrosion. […]

Data set [2] is described as follows: XRD quantitative phase analysis of carbon steel discs after immersion. The conditions noted are these: disc 4: SPS + 2M NaCl + NMP + 3 mM BPT, four-week immersion. The protocol:
Four 3 mm height discs were cut from […] diameter steel rebar and one of their flat faces was polished using silicon carbide sandpaper with 250, 400 and, 600 grit. Subsequently each disc was immersed for 90 seconds in 10 mL of a freshly prepared Clarke solution [42], rinsed thoroughly with water, acetone and dried under a soft stream of dry N2. The crystalline structure of the samples was analyzed on their sheeny face employing X-Ray powder diffraction (XRD) using a Bruker D8 Advance Eco diffractometer applying Cu-Kα1,2 radiation. All samples were scanned at 40 kV and 25 mA in the […] of 31-66° and 2.0 s of step time per 2θ=0.019°. The crystalline planes used to perform the quantitative phase analysis (QPA) are for iron at 2θ=44.6°; [2,0,0] for lepidocrocite at 2θ=47.4° and, [2,2,0] for goethite at 2θ=33.6°.
Subsequently, each one of the discs was immersed in a solution with the composition as described on Table 5 and their surfaces were analyzed using XRD four weeks later. The diffraction patterns are shown in FIG. 9 and the quantitative phase analysis (QPA) data is given on Table 6.

The structures appear in SMILES notation.

As for `c1ccc(Cn2cc(-c3ccccc3)nn2)cc1` [BPT, 1-Benzyl-4-Phenyl-1H-1,2,3-triazole], the OCP in data set [1] (1 mM BPT in SPS) is on record as −219.58 mV vs. SCE; in data set [1] (2 mM BPT in SPS), −236.13 mV vs. SCE; in data set [1] (3 mM BPT in SPS), −258.55 mV vs. SCE. In data set [2], the “Area under main Fe signal” value worked out at 33.501. Further, the “Area under main Lepidocrocite signal” value in data set [2] was found to be 1.245.
